The experiment concerns the target GST–TaJAZ1 (wheat (Triticum aestivum)). Kind of experiment: pull-down; 10 μg GST–TaJAZ1 bound to glutathione agarose resin, incubated overnight with 10 μg His–MBP–TaMYC2 in PBS at 4°C, seven washes, immunoblot with anti-GST or anti-His; both purified. On the technique in general: A western blot detects proteins with antibodies after separation by electrophoresis.

Results are given in words; binding and its absence hold for the method and conditions named. Binding can be weak; no strength is given.

Consider “His–MBP–TaMYC2 (from UniProt A0A3B5XZE8)”, for which the binding entry is “binds”.

For the origin of these results see paper PMC13140700.
